Source: the supplement of paper PMC11098740
This is one part of the list. Single values are uncertain, as repeats are few or missing.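 Pooled together, 41 HAP1 clones carry intronic fluorescent tags on 61 cancer-associated proteins, and each clone is recognized by its imaging pattern. Measurements are benchmarked against DMSO-treated control wells. dBET6, a BRD4 degrader, served as the positive control.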

The chains behind the UniProt entries cited, without tags or fusion partners.
UniProt O14980, whole entry: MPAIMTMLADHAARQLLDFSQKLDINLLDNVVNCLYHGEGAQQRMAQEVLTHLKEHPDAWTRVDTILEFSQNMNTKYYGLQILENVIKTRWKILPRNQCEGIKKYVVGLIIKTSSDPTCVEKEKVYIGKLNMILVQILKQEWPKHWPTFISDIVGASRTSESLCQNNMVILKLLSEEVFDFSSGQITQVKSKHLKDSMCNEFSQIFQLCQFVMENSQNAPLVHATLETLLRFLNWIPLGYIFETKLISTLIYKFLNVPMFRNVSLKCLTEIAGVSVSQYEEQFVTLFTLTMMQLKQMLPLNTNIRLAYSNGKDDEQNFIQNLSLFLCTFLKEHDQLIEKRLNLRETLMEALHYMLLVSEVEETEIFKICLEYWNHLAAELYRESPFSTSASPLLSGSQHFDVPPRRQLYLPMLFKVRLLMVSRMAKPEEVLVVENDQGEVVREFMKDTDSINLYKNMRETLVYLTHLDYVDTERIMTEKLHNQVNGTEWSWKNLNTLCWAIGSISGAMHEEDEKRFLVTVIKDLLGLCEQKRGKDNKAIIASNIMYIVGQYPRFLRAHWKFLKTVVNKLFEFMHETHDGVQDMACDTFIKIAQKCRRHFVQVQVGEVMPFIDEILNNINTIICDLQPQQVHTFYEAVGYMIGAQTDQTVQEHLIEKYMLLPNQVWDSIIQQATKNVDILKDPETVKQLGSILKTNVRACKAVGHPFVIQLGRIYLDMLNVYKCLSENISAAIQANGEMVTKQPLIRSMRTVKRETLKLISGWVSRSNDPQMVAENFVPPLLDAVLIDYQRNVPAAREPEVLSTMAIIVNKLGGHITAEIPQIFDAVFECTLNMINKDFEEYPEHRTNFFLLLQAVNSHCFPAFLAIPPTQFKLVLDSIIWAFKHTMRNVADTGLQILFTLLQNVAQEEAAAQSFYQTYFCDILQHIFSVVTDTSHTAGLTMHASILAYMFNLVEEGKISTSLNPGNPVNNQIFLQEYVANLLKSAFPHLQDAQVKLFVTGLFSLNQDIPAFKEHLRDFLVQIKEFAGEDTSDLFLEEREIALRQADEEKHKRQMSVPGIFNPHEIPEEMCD

These molecules were tested against XPO1 (intron 15 mScarlet tag, HAP1) (UniProt O14980) (assay: XPO1 fluorescence intensity change vs DMSO (log2 fold change); higher = more XPO1 protein). Conditions: 6 h.

Structure (SMILES)	XPO1 fluorescence intensity change (log2)
O=C(/C=C/c1ccccc1)c1ccc(O)c(CCCl)c1 (10 µM)	-0.262
O=C(NCC1CN(Cc2ccccc2)CCO1)Nc1ccc(F)cc1 (configuration not stated) (10 µM)	-0.0924
O=C(Nc1ccc(S(=O)(=O)C(F)F)cc1)N1CCc2sccc2C1 (0.1 µM)	-0.122
Oc1ccc(-c2csc(-c3cccc(F)c3)n2)cc1O (10 µM)	-0.131
COc1ccc2cc(C(C)c3nc4ccccc4n3C(C)C)ccc2c1 (configuration not stated) (0.1 µM)	0.176
COc1ccc(O)c(C(=O)c2cnc3cc4c(cc3c2)OCCO4)c1 (1 µM)	-0.0751
Fc1cc(CCl)c2c(c1)COC(c1ccsc1)O2 (configuration not stated) (1 µM)	0.216
CN(CCC(=O)NC(=O)NC12CC3CC(CC(C3)C1)C2)CCc1ccccn1 (10 µM)	-0.0389
N#CC(C#N)=C1C=CC=CN1/C(=C/c1ccccc1Cl)C(=O)c1cccs1 (0.1 µM)	0.0972
COc1cc(OC)c2[nH]c(C(=O)Nc3ccc(F)cc3)cc2c1 (10 µM)	0.0184
O=C(Nc1ccc(Oc2ccncc2)cc1)c1cccc2ccccc12 (0.1 µM)	-0.0268
CN(C)c1c(F)cc(NC(=O)NCc2ccccc2CO)cc1F (10 µM)	-0.0982
COCc1ccc(C(=O)Nc2cc(C)ccn2)cc1 (1 µM)	0.104
Cc1ccc(CNC(N)=NCc2ccccc2)cc1 (10 µM)	0.0385
CN(CCO)CC(O)Cn1c2ccc(Br)cc2c2cc(Br)ccc21 (configuration not stated) (10 µM)	-0.00186
COc1ccc(CCNc2ncnc3scc(-c4cccs4)c23)cc1OC (10 µM)	0.0586
O=C(Nc1ccc(N2CCCCCC2)cc1)c1ccccc1 (10 µM)	0.0339

A draw from above in order of SMILES length, largest number first.
Structure (SMILES)	XPO1 fluorescence intensity change (log2)
CN(CCC(=O)NC(=O)NC12CC3CC(CC(C3)C1)C2)CCc1ccccn1 (10 µM)	-0.0389
COc1ccc(O)c(C(=O)c2cnc3cc4c(cc3c2)OCCO4)c1 (1 µM)	-0.0751
CN(C)c1c(F)cc(NC(=O)NCc2ccccc2CO)cc1F (10 µM)	-0.0982
